Compound in this experiment: Nc1ncnc2c1ncn2[C@@H]1O[C@H](COP(=O)(O)OP(=O)(O)OP(=O)(O)O)[C@@H](O)[C@H]1O [adenosine triphosphate]
Nature of the experiment: NP40-soluble protein abundance relative to vehicle (solubility fold change) (ratio); higher = more soluble protein in presence of ATP. A digest of the protocol:
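Data come from three independent experiments in which Dounce-homogenised Jurkat crude lysate was treated at eight concentrations from 0.1 to 10 mM. Treatment ran 10 min at room temperature and then 3 min at 37 °C, after which 0.8% NP40 and benzonase were added for 60 min at 4 °C before ultracentrifugation. The supernatant underwent TMT labelling and LC-MS/MS, and vsn-normalised intensities were expressed as fold change against the detergent-processed vehicle in each replicate.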

Amino acid sequences for entries named in this document (tags omitted). A change or cut given only in a name is not applied to a line headed by its entry.
UniProt Q9UBS0: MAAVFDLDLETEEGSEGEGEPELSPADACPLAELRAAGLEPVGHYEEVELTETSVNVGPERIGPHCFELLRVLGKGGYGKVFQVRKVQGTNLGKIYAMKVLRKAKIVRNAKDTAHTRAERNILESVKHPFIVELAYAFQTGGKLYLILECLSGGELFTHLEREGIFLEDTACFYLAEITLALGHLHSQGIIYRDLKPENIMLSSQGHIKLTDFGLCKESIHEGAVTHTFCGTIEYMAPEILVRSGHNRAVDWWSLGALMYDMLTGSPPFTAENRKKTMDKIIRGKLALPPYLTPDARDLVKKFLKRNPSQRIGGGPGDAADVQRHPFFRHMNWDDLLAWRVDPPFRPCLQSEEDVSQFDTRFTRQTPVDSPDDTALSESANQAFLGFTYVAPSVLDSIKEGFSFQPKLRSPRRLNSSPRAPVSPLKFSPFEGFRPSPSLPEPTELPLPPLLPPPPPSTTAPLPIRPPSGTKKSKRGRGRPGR
UniProt Q9Y224: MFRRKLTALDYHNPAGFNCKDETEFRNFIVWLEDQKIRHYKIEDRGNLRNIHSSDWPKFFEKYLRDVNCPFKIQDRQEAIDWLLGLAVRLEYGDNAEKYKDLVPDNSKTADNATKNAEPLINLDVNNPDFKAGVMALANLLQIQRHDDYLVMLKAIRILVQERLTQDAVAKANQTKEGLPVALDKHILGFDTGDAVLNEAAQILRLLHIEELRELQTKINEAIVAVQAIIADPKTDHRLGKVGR
UniProt Q9UEY8: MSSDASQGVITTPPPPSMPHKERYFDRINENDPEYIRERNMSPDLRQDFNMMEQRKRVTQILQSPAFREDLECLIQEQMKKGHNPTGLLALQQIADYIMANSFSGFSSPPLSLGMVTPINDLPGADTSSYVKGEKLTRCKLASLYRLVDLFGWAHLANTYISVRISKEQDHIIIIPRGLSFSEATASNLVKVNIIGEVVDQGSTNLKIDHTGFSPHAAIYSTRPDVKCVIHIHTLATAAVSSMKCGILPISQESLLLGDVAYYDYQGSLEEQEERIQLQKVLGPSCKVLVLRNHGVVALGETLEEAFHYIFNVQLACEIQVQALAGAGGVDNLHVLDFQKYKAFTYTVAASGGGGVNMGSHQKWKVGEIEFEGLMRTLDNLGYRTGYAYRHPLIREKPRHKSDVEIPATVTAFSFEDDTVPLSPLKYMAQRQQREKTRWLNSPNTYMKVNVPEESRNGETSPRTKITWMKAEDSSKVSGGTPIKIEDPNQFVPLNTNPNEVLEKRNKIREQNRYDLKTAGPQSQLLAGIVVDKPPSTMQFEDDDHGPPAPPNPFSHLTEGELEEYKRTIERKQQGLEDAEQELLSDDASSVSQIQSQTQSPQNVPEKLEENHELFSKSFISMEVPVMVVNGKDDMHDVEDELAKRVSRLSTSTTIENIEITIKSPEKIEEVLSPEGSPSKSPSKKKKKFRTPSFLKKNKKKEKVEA
UniProt Q9ULE6: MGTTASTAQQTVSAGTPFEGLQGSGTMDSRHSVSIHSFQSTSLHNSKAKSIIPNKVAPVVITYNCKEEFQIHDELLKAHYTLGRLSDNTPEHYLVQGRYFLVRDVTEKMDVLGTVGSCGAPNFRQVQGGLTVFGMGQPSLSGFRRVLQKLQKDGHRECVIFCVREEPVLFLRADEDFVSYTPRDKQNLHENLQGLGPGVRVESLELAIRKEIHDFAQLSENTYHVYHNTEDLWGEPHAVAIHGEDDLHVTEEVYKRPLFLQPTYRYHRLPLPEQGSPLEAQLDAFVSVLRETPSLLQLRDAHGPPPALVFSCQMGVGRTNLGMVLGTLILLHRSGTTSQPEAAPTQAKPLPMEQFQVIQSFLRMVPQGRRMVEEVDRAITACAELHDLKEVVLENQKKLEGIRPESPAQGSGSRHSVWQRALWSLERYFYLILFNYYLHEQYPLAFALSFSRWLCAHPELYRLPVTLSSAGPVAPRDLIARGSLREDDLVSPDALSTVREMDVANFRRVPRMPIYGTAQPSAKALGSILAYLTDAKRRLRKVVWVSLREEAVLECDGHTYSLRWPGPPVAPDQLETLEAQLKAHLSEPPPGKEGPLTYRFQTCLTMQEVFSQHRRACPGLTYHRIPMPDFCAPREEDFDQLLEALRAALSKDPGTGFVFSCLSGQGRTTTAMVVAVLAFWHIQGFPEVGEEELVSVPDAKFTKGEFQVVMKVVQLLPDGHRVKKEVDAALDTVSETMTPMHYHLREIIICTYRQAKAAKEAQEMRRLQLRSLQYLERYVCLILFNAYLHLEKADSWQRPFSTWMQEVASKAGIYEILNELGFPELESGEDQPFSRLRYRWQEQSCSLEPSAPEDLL
UniProt Q9UNH7: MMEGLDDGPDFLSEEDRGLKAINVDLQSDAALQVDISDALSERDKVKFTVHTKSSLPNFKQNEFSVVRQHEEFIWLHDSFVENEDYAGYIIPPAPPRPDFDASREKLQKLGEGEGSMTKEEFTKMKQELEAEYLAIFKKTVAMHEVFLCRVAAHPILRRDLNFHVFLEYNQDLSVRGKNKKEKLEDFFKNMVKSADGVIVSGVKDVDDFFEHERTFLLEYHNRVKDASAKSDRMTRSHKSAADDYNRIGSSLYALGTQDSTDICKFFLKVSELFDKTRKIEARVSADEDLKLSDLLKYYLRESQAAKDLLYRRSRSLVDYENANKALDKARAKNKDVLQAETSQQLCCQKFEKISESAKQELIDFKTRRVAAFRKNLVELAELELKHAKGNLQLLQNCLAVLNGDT
UniProt Q9Y244: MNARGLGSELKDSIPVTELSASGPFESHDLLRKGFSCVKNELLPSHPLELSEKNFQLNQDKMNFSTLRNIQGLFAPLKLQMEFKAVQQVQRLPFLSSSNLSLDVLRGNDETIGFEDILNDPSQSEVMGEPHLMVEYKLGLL
UniProt Q9UPU5: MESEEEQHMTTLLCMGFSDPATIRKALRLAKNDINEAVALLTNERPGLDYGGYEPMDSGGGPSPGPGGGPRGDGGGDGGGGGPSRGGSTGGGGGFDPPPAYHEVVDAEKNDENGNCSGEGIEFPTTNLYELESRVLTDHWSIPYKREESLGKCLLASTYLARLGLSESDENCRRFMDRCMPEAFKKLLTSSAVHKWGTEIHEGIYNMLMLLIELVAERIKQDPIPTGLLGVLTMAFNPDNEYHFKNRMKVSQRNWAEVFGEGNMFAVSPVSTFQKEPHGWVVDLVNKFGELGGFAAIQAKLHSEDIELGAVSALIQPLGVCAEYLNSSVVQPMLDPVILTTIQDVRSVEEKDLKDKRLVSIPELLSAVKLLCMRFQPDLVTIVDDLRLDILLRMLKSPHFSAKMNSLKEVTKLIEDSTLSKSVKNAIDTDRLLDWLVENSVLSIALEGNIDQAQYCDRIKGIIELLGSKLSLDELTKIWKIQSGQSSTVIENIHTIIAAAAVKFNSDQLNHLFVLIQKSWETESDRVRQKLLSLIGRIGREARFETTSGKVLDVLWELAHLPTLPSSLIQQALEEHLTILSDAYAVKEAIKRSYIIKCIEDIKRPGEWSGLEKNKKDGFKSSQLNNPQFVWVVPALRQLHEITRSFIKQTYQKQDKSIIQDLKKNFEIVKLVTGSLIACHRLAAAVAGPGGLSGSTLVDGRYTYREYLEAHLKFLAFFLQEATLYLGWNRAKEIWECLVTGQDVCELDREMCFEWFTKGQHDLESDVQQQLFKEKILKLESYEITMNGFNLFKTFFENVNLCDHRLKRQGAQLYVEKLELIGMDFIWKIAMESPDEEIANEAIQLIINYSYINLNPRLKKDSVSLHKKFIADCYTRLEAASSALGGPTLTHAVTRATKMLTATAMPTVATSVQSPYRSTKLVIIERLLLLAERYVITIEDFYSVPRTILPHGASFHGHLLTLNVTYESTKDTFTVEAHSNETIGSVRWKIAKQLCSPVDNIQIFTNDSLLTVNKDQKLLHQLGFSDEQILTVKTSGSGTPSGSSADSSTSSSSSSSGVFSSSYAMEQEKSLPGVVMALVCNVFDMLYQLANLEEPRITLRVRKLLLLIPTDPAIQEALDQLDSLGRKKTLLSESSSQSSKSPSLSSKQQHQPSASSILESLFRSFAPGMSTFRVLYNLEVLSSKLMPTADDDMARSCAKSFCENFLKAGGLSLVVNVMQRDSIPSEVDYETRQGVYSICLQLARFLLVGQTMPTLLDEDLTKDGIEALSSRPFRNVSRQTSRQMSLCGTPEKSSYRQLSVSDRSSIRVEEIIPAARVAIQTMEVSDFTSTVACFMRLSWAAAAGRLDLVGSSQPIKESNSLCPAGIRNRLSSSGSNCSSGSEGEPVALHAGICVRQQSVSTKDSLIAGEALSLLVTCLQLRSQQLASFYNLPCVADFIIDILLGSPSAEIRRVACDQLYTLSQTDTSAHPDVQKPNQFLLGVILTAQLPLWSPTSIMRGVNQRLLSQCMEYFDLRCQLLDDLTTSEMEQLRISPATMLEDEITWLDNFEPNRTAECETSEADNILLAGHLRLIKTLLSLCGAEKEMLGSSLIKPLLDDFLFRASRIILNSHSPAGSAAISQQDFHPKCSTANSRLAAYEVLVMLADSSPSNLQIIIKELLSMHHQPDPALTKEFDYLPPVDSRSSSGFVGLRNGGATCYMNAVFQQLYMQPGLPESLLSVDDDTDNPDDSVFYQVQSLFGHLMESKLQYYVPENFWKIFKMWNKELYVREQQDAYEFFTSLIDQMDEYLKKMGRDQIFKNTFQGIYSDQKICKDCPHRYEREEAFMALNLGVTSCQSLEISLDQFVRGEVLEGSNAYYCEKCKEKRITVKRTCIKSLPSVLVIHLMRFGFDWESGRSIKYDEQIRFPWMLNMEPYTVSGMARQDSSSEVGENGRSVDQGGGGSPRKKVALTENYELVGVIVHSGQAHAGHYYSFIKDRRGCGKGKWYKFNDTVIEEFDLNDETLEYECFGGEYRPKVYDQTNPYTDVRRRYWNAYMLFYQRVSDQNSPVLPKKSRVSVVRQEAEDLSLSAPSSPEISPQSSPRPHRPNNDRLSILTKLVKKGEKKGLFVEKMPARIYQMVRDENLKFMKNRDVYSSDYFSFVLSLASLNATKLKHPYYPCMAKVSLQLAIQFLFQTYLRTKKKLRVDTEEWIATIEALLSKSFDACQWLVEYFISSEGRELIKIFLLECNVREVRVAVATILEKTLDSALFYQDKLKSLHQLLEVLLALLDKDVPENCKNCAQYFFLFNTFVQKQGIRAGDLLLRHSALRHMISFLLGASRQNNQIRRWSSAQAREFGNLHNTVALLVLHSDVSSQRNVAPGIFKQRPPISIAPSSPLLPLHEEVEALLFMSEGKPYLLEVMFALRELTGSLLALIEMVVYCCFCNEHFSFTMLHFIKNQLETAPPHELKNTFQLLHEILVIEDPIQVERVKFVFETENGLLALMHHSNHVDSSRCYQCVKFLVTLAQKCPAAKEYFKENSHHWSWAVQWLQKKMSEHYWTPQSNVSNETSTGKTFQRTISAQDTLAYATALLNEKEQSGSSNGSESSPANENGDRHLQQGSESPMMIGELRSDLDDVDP
UniProt Q9UP95: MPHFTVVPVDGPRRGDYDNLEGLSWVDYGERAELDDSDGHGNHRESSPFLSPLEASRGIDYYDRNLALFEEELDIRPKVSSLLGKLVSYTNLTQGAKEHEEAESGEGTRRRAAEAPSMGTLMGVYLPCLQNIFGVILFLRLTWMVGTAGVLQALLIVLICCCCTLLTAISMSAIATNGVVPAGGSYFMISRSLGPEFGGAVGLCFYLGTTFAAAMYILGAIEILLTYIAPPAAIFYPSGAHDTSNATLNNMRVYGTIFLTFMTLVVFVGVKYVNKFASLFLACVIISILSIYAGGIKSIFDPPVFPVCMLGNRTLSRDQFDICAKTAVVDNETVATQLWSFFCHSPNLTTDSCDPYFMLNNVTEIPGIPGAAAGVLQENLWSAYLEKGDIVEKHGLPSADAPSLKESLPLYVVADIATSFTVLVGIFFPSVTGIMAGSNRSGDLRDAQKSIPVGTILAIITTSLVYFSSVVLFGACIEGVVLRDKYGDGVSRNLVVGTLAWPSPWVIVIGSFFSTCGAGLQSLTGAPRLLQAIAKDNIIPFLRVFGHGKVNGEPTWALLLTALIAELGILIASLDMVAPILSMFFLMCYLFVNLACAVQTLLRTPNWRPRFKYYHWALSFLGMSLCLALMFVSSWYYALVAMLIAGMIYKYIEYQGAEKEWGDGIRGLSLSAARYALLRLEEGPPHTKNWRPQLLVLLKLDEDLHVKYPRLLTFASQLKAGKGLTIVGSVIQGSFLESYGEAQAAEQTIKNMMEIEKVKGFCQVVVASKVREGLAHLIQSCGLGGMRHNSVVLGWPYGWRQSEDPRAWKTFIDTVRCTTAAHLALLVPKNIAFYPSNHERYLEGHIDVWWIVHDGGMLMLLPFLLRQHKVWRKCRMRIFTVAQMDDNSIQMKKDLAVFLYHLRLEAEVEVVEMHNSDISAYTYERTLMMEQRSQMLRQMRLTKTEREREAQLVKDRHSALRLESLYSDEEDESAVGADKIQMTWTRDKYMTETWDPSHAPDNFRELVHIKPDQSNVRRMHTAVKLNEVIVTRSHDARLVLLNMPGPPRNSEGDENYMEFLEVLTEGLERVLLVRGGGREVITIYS

± gives the standard deviation of the averaged measurements. The entries are a selection whose mix differs from that of the whole data set. Most entries show no effect beyond the scatter of the controls.

Regarding UniProt Q9UBS0, the NP40-soluble protein abundance by setting is: (concentration: 0.1mM) 1.09 ± 0.034; (concentration: 0.5mM) 1.18 ± 0.047; (concentration: 1mM) 1.1 ± 0.063; (concentration: 2mM) 1.11 ± 0.082; (concentration: 4mM) 1.12 ± 0.088; (concentration: 6mM) 1.05 ± 0.053. Moreover, the NP40-soluble protein abundance is 1.15 ± 0.14 (concentration: 8mM) and 1.09 ± 0.11 (concentration: 10mM).

Consider UniProt Q9UEW8 and related entries, for which the NP40-soluble protein abundance runs as follows: (concentration: 0.1mM) 1 ± 0.035; (concentration: 0.5mM) 1.05 ± 0.083.

With SLC39A10 (UniProt Q9ULF5), the NP40-soluble protein abundance is, setting by setting: (concentration: 0.1mM) 0.971 ± 0.025; (concentration: 0.5mM) 0.942 ± 0.047.

As to DBR1 (UniProt Q9UK59), the NP40-soluble protein abundance reads like this: (concentration: 0.1mM) 1.04 ± 0.071; (concentration: 0.5mM) 1.06 ± 0.053; (concentration: 1mM) 1.04 ± 0.066; (concentration: 2mM) 1.03 ± 0.066; (concentration: 4mM) 1.02 ± 0.051; (concentration: 6mM) 0.973 ± 0.11. Further, the NP40-soluble protein abundance runs as follows: (concentration: 8mM) 1.03 ± 0.056; (concentration: 10mM) 1.03 ± 0.044.

As for ACAD8 (UniProt Q9UKU7), the NP40-soluble protein abundance by setting is: (concentration: 0.1mM) 1.06 ± 0.037; (concentration: 0.5mM) 1.04 ± 0.06; (concentration: 1mM) 1.01 ± 0.049; (concentration: 2mM) 1 ± 0.064; (concentration: 4mM) 0.988 ± 0.033; (concentration: 6mM) 0.961 ± 0.058. Besides, the NP40-soluble protein abundance came to 0.983 ± 0.029 (concentration: 8mM) and 0.99 ± 0.038 (concentration: 10mM).

With UniProt Q9UBK8 and related entries, the NP40-soluble protein abundance is, setting by setting: (concentration: 0.1mM) 1.01 ± 0.064; (concentration: 0.5mM) 0.994 ± 0.072; (concentration: 1mM) 0.946 ± 0.042; (concentration: 2mM) 1.01 ± 0.066; (concentration: 4mM) 0.941 ± 0.058; (concentration: 6mM) 0.97 ± 0.068. Further, the NP40-soluble protein abundance by setting is: (concentration: 8mM) 0.973 ± 0.028; (concentration: 10mM) 0.978 ± 0.08.

For the target CNOT7 (UniProt Q9UIV1), the NP40-soluble protein abundance by setting is: (concentration: 0.1mM) 1.12 ± 0.082; (concentration: 0.5mM) 1.12 ± 0.033; (concentration: 1mM) 1.23 ± 0.044; (concentration: 2mM) 1.22 ± 0.06; (concentration: 4mM) 1.29 ± 0.038; (concentration: 6mM) 1.25 ± 0.037. The NP40-soluble protein abundance worked out at 1.3 ± 0.061 (concentration: 8mM) and 1.26 ± 0.076 (concentration: 10mM).

As for UniProt Q9Y224, the NP40-soluble protein abundance (concentration: 0.1mM) was 0.911 ± 0.076; the NP40-soluble protein abundance (concentration: 0.5mM) is 0.842 ± 0.19; the NP40-soluble protein abundance (concentration: 1mM) stood at 0.958 ± 0.053; the NP40-soluble protein abundance (concentration: 2mM) was found to be 0.872 ± 0.031; the NP40-soluble protein abundance (concentration: 4mM) amounted to 0.903 ± 0.092; the NP40-soluble protein abundance (concentration: 6mM) was 0.918 ± 0.12. In addition, the NP40-soluble protein abundance runs as follows: (concentration: 8mM) 0.995 ± 0.011; (concentration: 10mM) 0.782 ± 0.18.

UniProt Q9UEY8 and related entries: the NP40-soluble protein abundance worked out at 1.02 ± 0.043 (concentration: 0.1mM); 1.04 ± 0.042 (concentration: 0.5mM); 1.01 ± 0.019 (concentration: 1mM); 1.02 ± 0.018 (concentration: 2mM); 1.01 ± 0.014 (concentration: 4mM); 1.02 ± 0.035 (concentration: 6mM). Moreover, the NP40-soluble protein abundance is, setting by setting: (concentration: 8mM) 0.99 ± 0.023; (concentration: 10mM) 1.004 ± 0.0086.

For “UniProt Q9UPN4-2|Q9UPN4-3|I3L2J8 and related entries”, the NP40-soluble protein abundance came out at 1.02 ± 0.056 (concentration: 0.1mM); 1.01 ± 0.049 (concentration: 0.5mM); 1.15 ± 0.14 (concentration: 1mM); 1.18 ± 0.14 (concentration: 2mM); 1.35 ± 0.12 (concentration: 4mM); 1.45 ± 0.21 (concentration: 6mM). Further, the NP40-soluble protein abundance reads like this: (concentration: 8mM) 1.47 ± 0.26; (concentration: 10mM) 1.7 ± 0.26.

For PARP4 (UniProt Q9UKK3), the NP40-soluble protein abundance is 1.09 ± 0.02 (concentration: 0.1mM); 1.14 ± 0.067 (concentration: 0.5mM); 1.14 ± 0.017 (concentration: 1mM); 1.15 ± 0.12 (concentration: 2mM); 1.12 ± 0.083 (concentration: 4mM); 1.15 ± 0.14 (concentration: 6mM). Moreover, the NP40-soluble protein abundance by setting is: (concentration: 8mM) 1.14 ± 0.042; (concentration: 10mM) 1.19 ± 0.085.

Consider UniProt Q9ULE6, for which the NP40-soluble protein abundance reads like this: (concentration: 0.1mM) 1.09 ± 0.067; (concentration: 0.5mM) 1.11 ± 0.05; (concentration: 1mM) 1.08 ± 0.084; (concentration: 2mM) 1.03 ± 0.12; (concentration: 4mM) 1.06 ± 0.092; (concentration: 6mM) 0.991 ± 0.1. For the same target, the NP40-soluble protein abundance (concentration: 8mM) worked out at 1.05 ± 0.045 and the NP40-soluble protein abundance (concentration: 10mM) came out at 1.02 ± 0.048.

SNX6 (UniProt Q9UNH7): the NP40-soluble protein abundance worked out at 0.9667 ± 0.0081 (concentration: 0.1mM) and 1.02 ± 0.07 (concentration: 0.5mM).

Turning to UniProt Q9ULI0 and related entries, the NP40-soluble protein abundance amounted to 1.14 ± 0.1 (concentration: 0.1mM); 1.52 ± 0.32 (concentration: 0.5mM); 1.69 ± 0.34 (concentration: 1mM); 1.83 ± 0.46 (concentration: 2mM); 1.86 ± 0.57 (concentration: 4mM); 1.86 ± 0.44 (concentration: 6mM). The NP40-soluble protein abundance (concentration: 8mM) was 1.75 ± 0.44 and the NP40-soluble protein abundance (concentration: 10mM) worked out at 1.72 ± 0.48.

As to WDR3 (UniProt Q9UNX4), the NP40-soluble protein abundance by setting is: (concentration: 0.1mM) 1.11 ± 0.09; (concentration: 0.5mM) 1.15 ± 0.067; (concentration: 1mM) 1.28 ± 0.11; (concentration: 2mM) 1.46 ± 0.1; (concentration: 4mM) 1.82 ± 0.17; (concentration: 6mM) 1.97 ± 0.2. Further, the NP40-soluble protein abundance is, setting by setting: (concentration: 8mM) 2.23 ± 0.2; (concentration: 10mM) 2.34 ± 0.13.

Regarding UniProt Q9ULH0 and related entries, the NP40-soluble protein abundance (concentration: 0.1mM) turned out to be 1.04 ± 0.038 and the NP40-soluble protein abundance (concentration: 0.5mM) is 0.999 ± 0.025.

For the target UniProt Q9UL15 and related entries, the NP40-soluble protein abundance (concentration: 0.1mM) is 0.98 ± 0.011; the NP40-soluble protein abundance (concentration: 0.5mM) came to 1.02 ± 0.05; the NP40-soluble protein abundance (concentration: 1mM) was 0.964 ± 0.032; the NP40-soluble protein abundance (concentration: 2mM) is 0.988 ± 0.024; the NP40-soluble protein abundance (concentration: 4mM) was determined as 0.976 ± 0.035; the NP40-soluble protein abundance (concentration: 6mM) came to 0.993 ± 0.018. In addition, the NP40-soluble protein abundance (concentration: 8mM) was found to be 0.971 ± 0.01 and the NP40-soluble protein abundance (concentration: 10mM) was 0.979 ± 0.029.

Turning to UniProt Q9UBF8-2, the NP40-soluble protein abundance by setting is: (concentration: 0.1mM) 1.01 ± 0.047; (concentration: 0.5mM) 0.952 ± 0.028; (concentration: 1mM) 0.962 ± 0.044; (concentration: 2mM) 0.961 ± 0.065; (concentration: 4mM) 0.9581 ± 0.0056; (concentration: 6mM) 0.938 ± 0.011. Besides, the NP40-soluble protein abundance is, setting by setting: (concentration: 8mM) 0.9049 ± 0.007; (concentration: 10mM) 0.928 ± 0.026.

UniProt Q9UDT6-2: the NP40-soluble protein abundance (concentration: 0.1mM) is 0.983 ± 0.083 and the NP40-soluble protein abundance (concentration: 0.5mM) amounted to 1.09 ± 0.11.

With POMP (UniProt Q9Y244), the NP40-soluble protein abundance (concentration: 0.1mM) was found to be 0.892 ± 0.076 and the NP40-soluble protein abundance (concentration: 0.5mM) stood at 0.849 ± 0.11.

As for USP24 (UniProt Q9UPU5), the NP40-soluble protein abundance by setting is: (concentration: 0.1mM) 1.02 ± 0.047; (concentration: 0.5mM) 1.03 ± 0.024.

Regarding UniProt Q9UP95 and related entries, the NP40-soluble protein abundance amounted to 1.04 ± 0.11 (concentration: 0.1mM); 0.956 ± 0.068 (concentration: 0.5mM); 0.956 ± 0.1 (concentration: 1mM); 0.979 ± 0.12 (concentration: 2mM); 0.964 ± 0.11 (concentration: 4mM); 1.03 ± 0.058 (concentration: 6mM). For the same target, the NP40-soluble protein abundance reads like this: (concentration: 8mM) 0.909 ± 0.099; (concentration: 10mM) 0.989 ± 0.035.

For the origin of these results see the supplement of paper PMC6411743.
